Data reported in US8129557B2, “Phosphonic acid diester derivative and method for producing thereof” (priority 2005, dated 2012).
Some entries share one result that the patent states for a list of compounds.

By UniProt entry, the sequences of proteins in these tests, tags left out. Residues count along the entry.
UniProt P19440, 1-380 limits assumed: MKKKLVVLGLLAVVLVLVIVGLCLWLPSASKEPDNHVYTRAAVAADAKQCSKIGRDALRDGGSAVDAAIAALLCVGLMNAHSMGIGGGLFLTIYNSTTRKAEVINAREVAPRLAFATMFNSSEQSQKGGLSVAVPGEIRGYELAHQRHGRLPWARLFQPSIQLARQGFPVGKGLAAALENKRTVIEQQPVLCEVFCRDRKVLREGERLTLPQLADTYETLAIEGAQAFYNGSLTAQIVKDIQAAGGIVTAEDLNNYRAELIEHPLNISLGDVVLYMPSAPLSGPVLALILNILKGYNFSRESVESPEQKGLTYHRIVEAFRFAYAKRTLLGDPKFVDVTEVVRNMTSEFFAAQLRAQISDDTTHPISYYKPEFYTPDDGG
UniProt P19440, 381-569 limits assumed: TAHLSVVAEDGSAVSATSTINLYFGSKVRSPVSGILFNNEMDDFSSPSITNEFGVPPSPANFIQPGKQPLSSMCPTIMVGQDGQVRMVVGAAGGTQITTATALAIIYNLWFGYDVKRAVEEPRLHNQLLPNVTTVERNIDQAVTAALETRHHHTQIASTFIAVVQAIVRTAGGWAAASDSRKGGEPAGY

Tests used:
[1] = biological target: T1, human GGT (Homo sapiens, UniProt P19440); test: Second-order rate constant kon of human GGT inactivation (continuous or discontinuous assay); type: biochemical; conditions: for plot of log kon (human GGT) against pKa of aryl group, FIG. 4: position relative to the straight line; for kon toward human GGT compared with kon of acivicin of Comparative Example 1: comparison in words
T1 construct: purchased Asahi Kasei Co., Ltd. HC-GTP (lot 603AA)
From the text: (§1) Purified enzyme of E-coli GGT and crude enzyme of human GGT were employed as GGT samples for an inhibition experiment. The enzyme whose physicochemical properties are described in the Document (Hideyuki Suzuki, Hidehiko Kumagai, Tatsurokukro Tochikura “gamma-Glutamyltranspeptidase from Escherichia coli K-12: Purification and Properties” Journal of Bacteriology, December 1986, Vol. 168, No. 3, p. 1325-1331) was used as a purified enzyme of E-coli GGT. Enzyme [HC-GTP (product number), 603AA (lot number)] manufactured by Asahi Kasei Co., Ltd. was used as a crude enzyme of human GGT. The crude enzyme of human GGT contained a large amount of bovine serum albumin (BSA) to stabilize the enzyme, and the GGT concentration was 1% or lower.
In the hydrolytic assay of human GGT, the measurement was carried out in the same manner as that in the hydrolytic assay of E-coli GGT, except that the substrate concentration was changed to […] and therefore, the explanation of the common portions was omitted.
Next, a second-order rate constant for enzyme inactivation kon was measured by either a continuous assay or a discontinuous assay. Both of the continuous and discontinuous assay for measuring inhibitory activity to GGT were carried out under a pseudo-first-order reaction condition.
In the continuous assay, while the temperature was kept at 25° C., the 100 mM succinic acid-sodium hydroxide buffer solutions (pH 5.5) containing an inhibitor in various concentrations and the substrate were preincubated for equilibrium. Herein, 0.2 μM of the substrate was used for the case of E-coli GGT and 0.4 μM of the substrate was used for the case of human GGT. Thereafter, the enzyme solution of the E-coli GGT was added in a manner that the final concentration became 0.04 nM and also the human GGT crude enzyme solution was added in a manner that the final concentration became 5 μg/mL. Accordingly, the reaction was started and the release of AMC (increase of the fluorescence intensity) was continuously traced for 10 minutes.
(§2) The fluorescence intensity data obtained from the respective curves was applied to the following pseudo-first-order rate equation (2) and the observed pseudo-first-order rate constant for enzyme inactivation (kobs) was calculated by nonlinear regression analysis [Stein, R. L. et al. Biochemistry 26, 2682-2689 (1987)].
[Equation 2] [P]=[P]∞[1−exp(−kobst)] (2)
(§3) When the kobs was plotted against to the inhibitor concentration ([I]), a linear relation was obtained until the maximum extent of the experimentally possible inhibitor concentration. Therefore, the second-order rate constant for enzyme inactivation kon was calculated using the following equation (3) deduced from the kinetic mechanism.
[drawing 37] [Equation 3] kobs=kon[I]/(1+[S]/Km) (3)
Herein, S denotes 7-(γ-L-glutamylamino)-4-methylcoumarin. The substrate concentration [S] for E-coli GGT is 0.2 μM and the Km value is 0.2 μM. […] The kinetic data was obtained by nonlinear regression analysis using Kaleida graph, a program produced by Synergy Software.
Further, in the discontinuous assay, an inhibitor in various concentrations was dissolved in 100 mM succinic acid-sodium hydroxide buffer solution (pH 5.5) and the enzyme solution was added to the resulting buffer solutions. Herein, in the case of E-coli GGT, the enzyme solution was added in a manner that the final concentration became 0.4 nM and also the human GGT crude enzyme solution was added in a manner that the final concentration became 0.5 mg/mL. Accordingly, the reaction of the inhibitor and each GGT was conducted at 25° C. An aliquot (10 μL) of each of the reaction solutions were sampled at every specified time to measure the remaining enzyme activity by the above-mentioned enzyme activation method. The remaining enzyme activity at every time was analyzed by nonlinear regression using the pseudo-first-order rate equation (4) of enzyme inactivation to calculate the value of kobs.
[Equation 4] αt/α0=exp(−kobst) (4) […]

[2] = biological target: T2, E-coli GGT (Escherichia coli, UniProt P18956); test: Second-order rate constant kon of E-coli GGT inactivation (continuous or discontinuous assay); type: biochemical, Escherichia coli K-12; conditions: comparison in words
T2 construct: was used as a purified enzyme of E-coli GGT; made in house
T2 sequence (P18956 26-390 limits assumed): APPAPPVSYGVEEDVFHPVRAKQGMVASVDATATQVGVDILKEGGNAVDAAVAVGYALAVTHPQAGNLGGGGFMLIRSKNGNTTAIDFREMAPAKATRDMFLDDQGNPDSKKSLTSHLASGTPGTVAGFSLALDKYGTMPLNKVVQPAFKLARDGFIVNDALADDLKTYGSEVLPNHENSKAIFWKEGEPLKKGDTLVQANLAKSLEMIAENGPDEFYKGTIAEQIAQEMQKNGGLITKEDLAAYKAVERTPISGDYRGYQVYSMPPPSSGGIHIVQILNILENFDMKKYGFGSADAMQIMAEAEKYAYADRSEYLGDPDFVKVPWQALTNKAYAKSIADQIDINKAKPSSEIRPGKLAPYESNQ
T2 sequence (P18956 391-580 limits assumed): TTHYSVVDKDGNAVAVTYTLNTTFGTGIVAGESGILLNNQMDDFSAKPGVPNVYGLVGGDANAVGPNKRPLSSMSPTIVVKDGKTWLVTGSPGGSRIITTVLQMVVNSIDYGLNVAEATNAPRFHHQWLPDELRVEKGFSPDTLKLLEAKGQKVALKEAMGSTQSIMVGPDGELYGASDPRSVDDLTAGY
From the text: as §1
In the hydrolytic assay of E. coli GGT, 10 μL of a […] enzyme solution was added to a 100 mM succinic acid-sodium hydroxide buffer solution (pH 5.5) in a total volume of 1 mL containing 100 μL of 2 μM substrate aqueous solution. The product, 7-amino-4-methylcoumarin (AMC), released along with the enzyme reaction was traced continuously at 25° C. using a fluorospectrophotometer F-2000 manufactured by Hitachi Ltd. (excitation wavelength: 350 nm, emission wavelength: 440 nm). The AMC concentration was separately measured by forming a calibration curve showing the relation of the fluorescence intensity (F) and the concentration (C) using standard solutions and was calculated from the relational expression (1) of the fluorescence intensity alteration (ΔF) and concentration alteration (ΔC).
Next, a second-order rate constant for enzyme inactivation kon was measured by either a continuous assay or a discontinuous assay. […]
In the continuous assay, while the temperature was kept at 25° C., the 100 mM succinic acid-sodium hydroxide buffer solutions (pH 5.5) containing an inhibitor in various concentrations and the substrate were preincubated for equilibrium. […] Accordingly, the reaction was started and the release of AMC (increase of the fluorescence intensity) was continuously traced for 10 minutes.
as §2, with “(1987)]. […]” for “(1987)].”
as §3, with “mechanism. […]” for “mechanism.”

SMILES	plot of log kon (human GGT) against pKa of aryl group, FIG. 4 [1]	kon toward human GGT compared with kon of acivicin of Comparative Example 1 [1]	kon toward E. coli GGT compared with kon of acivicin of Comparative Example 1 [2]
COP(=O)(CCC(N)C(=O)O)Oc1ccc(C)cc1 (stereo not drawn) [Example 1, 2-amino-4-[methyl(4-methylphenyl)phosphono]butanoic Acid]	become linear		
COc1ccc(OP(=O)(CCC(N)C(=O)O)OC)cc1 (stereo not drawn) [Example 2, 2-amino-4-[(4-methoxyphenyl)(methyl)phosphono]butanoic Acid]	become linear		
COP(=O)(CCC(N)C(=O)O)Oc1ccccc1 (stereo not drawn) [Example 3, 2-amino-4-[methyl(phenyl)phosphono]butanoic Acid]	become linear		
COP(=O)(CCC(N)C(=O)O)Oc1ccc(Cl)cc1 (stereo not drawn) [Example 4, 2-amino-4-[(4-chlorophenyl)(methyl)phosphono]butanoic Acid]	become linear	higher	
COP(=O)(CCC(N)C(=O)O)Oc1ccc(C(F)(F)F)cc1 (stereo not drawn) [Example 5, 2-amino-4-[methyl(4-trifluoromethylphenyl)phosphono]butanoic acid]	become linear	higher	
COP(=O)(CCC(N)C(=O)O)Oc1ccc(C#N)cc1 (stereo not drawn) [Example 6, 2-amino-4-[(4-cyanophenyl)(methyl)phosphono]butanoic Acid]	become linear	higher	higher
COP(=O)(CCC(N)C(=O)O)Oc1ccc([N+](=O)[O-])cc1 (stereo not drawn) [Example 7, 2-amino-4-[methyl(4-nitrophenyl)phosphono]butanoic Acid]	become linear	higher	higher
COP(=O)(CCC(N)C(=O)O)Oc1ccc2c(C)cc(=O)oc2c1 (stereo not drawn) [Example 8, 2-amino-4-[methyl(4-methylumbelliferyl)phosphono]butanoic Acid]		higher	higher
CCC(OP(=O)(CCC(N)C(=O)O)Oc1ccccc1)C(=O)NCC(=O)O (stereo not drawn) [Example 10, 2-amino-4-[1-[N-(carboxymethyl)carbamoyl]propyl(phenyl)phosphono]butanoic acid]		higher	
COP(=O)(CCC(N)C(=O)O)Oc1cccc(CC(=O)O)c1 (stereo not drawn) [Example 11, 2-amino-4-{[3-(carboxymethyl)phenyl](methyl)phosphono}butanoic Acid]		higher	
COP(=O)(CCC(N)C(=O)O)Oc1ccc(CC(=O)O)cc1 (stereo not drawn) [Example 12, 2-amino-4-{[4-(carboxymethyl)phenyl](methyl)phosphono}butanoic Acid]	become linear		
COP(=O)(CCC(N)C(=O)O)Oc1ccc(C(=O)O)cc1 (stereo not drawn) [Example 13, 2-amino-4-[4-carboxyphenyl(methyl)phosphono]butanoic Acid]	become linear	higher	
COP(=O)(CCC(N)C(=O)O)Oc1cccc([N+](=O)[O-])c1 (stereo not drawn) [Example 14, 2-amino-4-[methyl(3-nitrophenyl)phosphono]butanoic Acid]	become linear	higher	higher
COP(=O)(CCC(N)C(=O)O)Oc1cccc(C(=O)O)c1 (stereo not drawn) [Example 15, 2-amino-4-[3-carboxyphenyl(methyl)phosphono]butanoic Acid]	become linear	higher	
COP(=O)(CCC(N)C(=O)O)Oc1cccc(CCC(=O)O)c1 (stereo not drawn) [Example 16, 2-amino-4-{[3-(2-carboxyethyl)phenyl](methyl)phosphono}butanoic Acid]		higher	
NC(CCP(=O)(Oc1ccccc1)Oc1ccccc1)C(=O)O (stereo not drawn) [Example 17, 2-amino-4-(diphenylphosphono)butanoic Acid]	become linear		
